Patent US6569858B2, “12,13-(pyranosyl)-indolo[2,3-a]pyrrolo[3,4-c]carbazole and 12,13-(pyranosyl)-furo[3,4-c]indolo[2,3-a]carbazoles” (Les Laboratoires Servier, priority 1999, dated 2003)
Structures can show the parent of a compound that is named as a salt. Some of these results come from one statement about several compounds together. At least one compound was matched to its structure with a doubt left.

Key:
Assay type in all cases: cell-based
[1] = tested on: ovarian carcinoma IGROV-1; assay: Human cell line cytotoxicity, IGROV-1; conditions: IGROV-1, incubation 4 days
neuroblastoma SK-N-MC = assay: Human cell line cytotoxicity, SK-N-MC; conditions: incubation 4 days
colon carcinoma HT-29 = assay: Human cell line cytotoxicity, HT-29; conditions: HT-29, incubation 4 days
[2] = tested on: non-small cell pulmonary carcinoma A549; assay: Human cell line cytotoxicity, A549; conditions: A549, incubation 4 days
[3] = tested on: epidermoid carcinoma A431; assay: Human cell line cytotoxicity, A431; conditions: A431, incubation 4 days
[4] = tested on: small-cell pulmonary carcinoma H 69; assay: Human cell line cytotoxicity, H 69; conditions: H 69, incubation 4 days

Measured: IC50

3- and 9-Nitro-12,13-[1,2-(4—O-methyl-β-D-mannopyranosyl)]-6,7,12,13-tetrahydro-(5H)-indolo[2,3-a]pyrrolo[3,4-c]carbazole-5,7-dione [Example 14]
< 1000 nM: all assays above

COC1C(CO)OC2C(C1O)n1c3ccc(Br)cc3c3c4c(c5c6cc(Br)ccc6n2c5c31)C(=O)NC4=O [Example 19, 3,9-Dibromo-12,13-[1,2-(4—O-methyl-β-D-mannopyranosyl)]-6,7,12,13-tetrahydro-(5H)-indolo[2,3-a]pyrrolo[3,4-c]carbazole-5,7-dione]
< 1000 nM: all assays above

COC1C2COC1C1C(O2)n2c3ccc([N+](=O)[O-])cc3c3c4c(c5c6cc([N+](=O)[O-])ccc6n1c5c32)C(=O)NC4=O [Example 16, 3,9-Dinitro-12,13-[1,2-(3,6-anhydro-4—O-methyl-β-D-mannopyranosyl)]-6,7,12,13-tetrahydro-(5H)-indolo[2,3-a]-pyrrolo[3,4-c]carbazole-5,7-dione]
< 1000 nM: all assays above

CCN(CC)CCN1C(=O)c2c(c3c4ccccc4n4c3c3c2c2ccccc2n3C2OC(CO)C(OC)C(O)C24)C1=O [Example 29, 6-Diethylaminoethyl-12,13-[1,2-(4—O-methyl-β-D-mannopyranosyl)]-6,7,12,13-tetrahydro-(5H)-indolo[2,3-a]pyrrolo[3,4-c]carbazole-5,7-dione and its hydrochloride]
< 1000 nM: all assays above
